For at least one entry, the source does not settle the construct or the ends of the probe. At least one result comes from cells or an extract, where the contact may be indirect.
System: GFP-CTCF + Flag-UBF
Experiment: EMSA
Conditions: EMSA: 20 mM Hepes pH 7.4, 20 mM KCl, 1 mM MgCl2, 5 mM DTT, 10 uM ZnCl2, 10% glycerol, 100 ug/ml BSA, 0.02% NP40, 2-4 ug salmon sperm DNA; room temperature 20 min; 5% gel; protein in a lysate after overexpression; protein details: GFP,Flag; label: 32P end label

Sequence: TGTATGGTTGATCGAGACCATTGTCGGGCGACACCTAGTGGTGACAAGTTTCGGGAACGCTCCAGGCCTCT (double strand) [R30]
- binding result: binds

Reference: PMC2993708
